The list shows a part of the results. The calls rarely recur for the same compound in another form.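 Kinases, fused to nanoluciferase, were expressed in K562 cells; luminescence was measured every 4 h from 2 to 18 h as percent of control (DMSO = 100%, positive control = 0%). A time point is decreased if signal falls significantly (2 sigma). Hits were called by the authors by a rule that is not shown; the count of time points alone does not decide it.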
These molecules were tested against EGFR_L858R (UniProt P00533) (assay: kinase-Nluc reporter destabilization hit call (1 = scored as downregulated) (binary); higher = compound decreases kinase abundance). Conditions: K562; 2-18 h.

kinase-Nluc reporter destabilization hit call, inactive:
COc1cc2ncn(-c3cc(OCc4ccccc4C(F)(F)F)c(C(N)=O)s3)c2cc1OC (10 µM) 0, CCn1cc(-c2ccnc3[nH]c(-c4cccc(CN(C)C)c4)cc23)c(-c2ccc(NC(=O)N(C)C)cc2)n1 (2.5 µM) 0, C[C@H](CN(C)C)Oc1nc(Nc2cc3cccc(Cl)c3cn2)cnc1C#N (10 µM) 0, Cc1cccc(Cn2nc(C3CC3)c3c(NC(=O)c4cnc5cc(OCCN6CCN(C)CC6)ccn45)cccc32)n1 (10 µM) 0, COc1ccc2c(C(=O)Nc3ccc(NC(=O)c4nn(C5CCN(C(=O)CC(C)(C)C#N)CC5)c5ccc(F)cc45)cc3Cl)cnn2c1 [Src Inhibitor 3] (2.5 µM) 0, CN1CCN(c2ccc(C(=O)Nc3n[nH]c4ccc(Cc5cc(F)cc(F)c5)cc34)c(NC3CCOCC3)c2)CC1 [Entrectinib] (2.5 µM) 0, CCN1CCN(Cc2ccc(C(=O)Nc3ccc(C)c(Oc4ccc5c(c4)CC(=O)N5)c3)cc2C(F)(F)F)CC1 (2.5 µM) 0

From the supplement of paper PMC12823440, “Inhibitors supercharge kinase turnover through native proteolytic circuits” (Nature, 2025)
